Assay: Penetration of apigenin, ibuprofen and thymol into extracted teeth (Example 31)
Settings: teeth soaked 24 hours

O=c1cc(-c2ccc(O)cc2)oc2cc(O)cc(O)c12 [APIG, apigenin]
APIG Final amount: 750 µg | APIG HPLC Results (25 mL methanol extract): 30.0 µg/mL

Cc1ccc(C(C)C)c(O)c1 [THY, thymol]
THY Final amount: 2252.5 µg | THY HPLC Results (25 mL methanol extract): 90.1 µg/mL

CC(C)Cc1ccc(C(C)C(=O)O)cc1 (stereo not drawn) [IBP, ibuprofen, reference compound]
IBP Final amount: 5100 µg | IBP HPLC Results (25 mL methanol extract): 204.0 µg/mL

Source: US20170071840A1, “POLYPHENOL/FLAVONOID COMPOSITIONS AND METHODS OF FORMULATING ORAL HYGIENIC PRODUCTS” (VIZURI HEALTH SCIENCES LLC, priority 2015, published 2017)
